Some peptides are written in HELM: one residue between dots, names in brackets for other building blocks, links after the first $.
Assay: general procedure: Fmoc solid-phase peptide synthesis; 2-chlorotrityl chloride resin
Details: whole synthesis

PEPTIDE1{[Nap].F.F.G.Y.K.C.D}$$$$V2.0
final HPLC purity: 96%

Reference: paper PMC11784115 (Journal of Nanobiotechnology, 2025)
